Data: patent US20060177448A1, “Inhibiting HER2 shedding with matrix metalloprotease antagonists” (Genentech, Inc., priority 2005, published 2006)
These are yes or no findings as the source states them, for the method shown. In cells and extracts the contact can be indirect. Some binding calls cover weakened binding; strength is not graded here.

Chains of the proteins cited; added tags and fusions are not shown. Residues count along the entry.
UniProt P51511, residues 132-625: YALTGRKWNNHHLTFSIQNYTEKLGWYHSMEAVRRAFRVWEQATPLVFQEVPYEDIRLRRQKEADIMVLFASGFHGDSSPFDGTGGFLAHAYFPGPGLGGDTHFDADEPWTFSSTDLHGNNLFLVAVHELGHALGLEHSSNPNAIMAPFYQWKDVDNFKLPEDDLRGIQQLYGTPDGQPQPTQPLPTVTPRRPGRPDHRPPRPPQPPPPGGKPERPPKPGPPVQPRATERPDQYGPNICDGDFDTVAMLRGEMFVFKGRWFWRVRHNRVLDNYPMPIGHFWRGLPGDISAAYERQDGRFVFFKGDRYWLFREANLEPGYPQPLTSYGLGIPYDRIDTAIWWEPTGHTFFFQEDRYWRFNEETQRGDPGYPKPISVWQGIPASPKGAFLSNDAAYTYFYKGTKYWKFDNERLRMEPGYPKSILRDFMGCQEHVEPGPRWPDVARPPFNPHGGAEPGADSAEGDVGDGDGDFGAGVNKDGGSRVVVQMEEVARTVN

Molecular target: Flag-HER2 (pRK5.Flag-HER2) (human) (UniProt P04626)
Test: co-immunoprecipitation from co-transfected Cos-7 cells, anti-FLAG resin, Western blot

- binding: binds
Substance: soluble MMP-15 with a C-terminal V5 His epitope (sMMP-15V5His) (from UniProt P51511 132-625) (enzyme)
